From the supplement of paper PMC4604168 (melanoma cell lines)
This is one part of the list. Many values rest on one well or one pass, so single values are uncertain.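 The apoptosis fraction was the count of cleaved-PARP antibody-stained nuclei relative to all DNA-stained nuclei, imaged in 1,536-well plates. Screening doses were set so most cells survived, and baseline and induced cleaved-PARP levels vary greatly across cell lines.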

How the values were obtained:
Assay in all cases: cleaved PARP positive nuclei fraction relative to DMSO control; melanoma cells; higher = more apoptosis
Conditions in all cases: library dose: low library concentration; 72 h
MZ2-MEL = system: MZ2-MEL
MeWo = system: MeWo
RPMI7951 = system: RPMI7951
RVH-421 = system: RVH-421
SkMel28 = system: SkMel28
SkMel30 = system: SkMel30
SkMel5 = system: SkMel5
UACC257 = system: UACC257
UACC62 = system: UACC62
WM115 = system: WM115
WM1716 = system: WM1716
WM1745 = system: WM1745
WM3526 = system: WM3526
WM3619 = system: WM3619
WM451Lu = system: WM451Lu

Row | SMILES | cleaved PARP positive nuclei fraction (MZ2-MEL) [%] | cleaved PARP positive nuclei fraction (MeWo) [%] | cleaved PARP positive nuclei fraction (RPMI7951) [%] | cleaved PARP positive nuclei fraction (RVH-421) [%] | cleaved PARP positive nuclei fraction (SkMel28) [%] | cleaved PARP positive nuclei fraction (SkMel30) [%] | cleaved PARP positive nuclei fraction (SkMel5) [%] | cleaved PARP positive nuclei fraction (UACC257) [%] | cleaved PARP positive nuclei fraction (UACC62) [%] | cleaved PARP positive nuclei fraction (WM115) [%] | cleaved PARP positive nuclei fraction (WM1716) [%] | cleaved PARP positive nuclei fraction (WM1745) [%] | cleaved PARP positive nuclei fraction (WM3526) [%] | cleaved PARP positive nuclei fraction (WM3619) [%] | cleaved PARP positive nuclei fraction (WM451Lu) [%]
1 | Cc1cc(N2CCOCC2)cc2[nH]c(-c3c(NC[C@@H](O)c4cccc(Cl)c4)cc[nH]c3=O)nc12 + O=C(O)C(=O)Nc1sc2c(c1C(=O)O)CCNC2 [TCS401] (first compound 0.2 µM, partner dose 1.66667 µM) | 137 | 53.7 | 122 | 13.7 | 179 | 134 | 29.9 | 125 | 125 | 81.5 | 83.7 | 125 | 18.9 | 81 | 84.7
2 | CC(C)(C)c1cnc(CSc2cnc(NC(=O)C3CCNCC3)s2)o1 + CC(C)CCN1c2nc(Nc3cc(F)c(O)c(F)c3)ncc2N(C)C(=O)C1C [BID1870] (first compound 0.01 µM, partner dose 0.2 µM) | 192 | 58.6 | 229 | 35.4 | 198 | 26.8 | 134 | 156 | 72.1 | 109 | 147 | 110 | 159 | 93.7 | 31.7
3 | Nc1cccc2c1CN(C1CCC(=O)NC1=O)C2=O (stereo not given) [lenalidomide] + O=S(=O)(c1ccccc1)N(CC(F)(F)F)c1ccc(C(O)(C(F)(F)F)C(F)(F)F)cc1 [T0901317] (first compound 1 µM, partner dose 1.4 µM) | 91 | 150 | 91.9 | 422 | 123 | 26.1 | 77.8 | 179 | 80.1 | 285 | 148 | 121 | 127 | 96.2 | 162
4 | CC(C)(C)c1cnc(CSc2cnc(NC(=O)C3CCNCC3)s2)o1 + O=C(Nc1ccccc1)c1cc([N+](=O)[O-])ccc1Cl [GW9662] (first compound 0.01 µM, partner dose 2 µM) | 91.3 | 126 | 92.4 | 120 | 42.6 | 246 | 54.2 | 98.9 | 96 | 83.5 | 62.2 | 95.3 | 54.7 | 79.5 | 112
5 | Cn1cncc1[C@@](N)(c1ccc(Cl)cc1)c1ccc2c(c1)c(-c1cccc(Cl)c1)cc(=O)n2C [tipifarnib] + O=S(=O)(c1ccccc1)N(CC(F)(F)F)c1ccc(C(O)(C(F)(F)F)C(F)(F)F)cc1 [T0901317] (first compound 0.01 µM, partner dose 1.4 µM) | 64.8 | 65.4 | 46.1 | 123 | 99.2 | 11.5 | 41.4 | 191 | 286 | 49.2 | 86.2 | 259 | 67.3 | 74.4 | 356
6 | Cc1ccc(NC(=O)c2cccc(N(C)C)c2)cc1NC(=O)c1ccc(O)cc1 + COc1cc2ncnc(Nc3ccc(Oc4ccccc4)cc3)c2cc1OC [SrcI1] (first compound 2 µM, partner dose 2 µM) | 86 | 56.4 | 41.5 | 158 | 106 | 120 | 104 | 82.2 | 80.5 | 135 | 15.2 | 114 | 77.3 | 78.5 | 158
7 | CO[C@@H]1[C@H](N(C)C(=O)c2ccccc2)C[C@H]2O[C@]1(C)n1c3ccccc3c3c4c(c5c6ccccc6n2c5c31)C(=O)NC4 [Midostaurin] + CCc1ccc(CCOc2ccc(CC3SC(=O)NC3=O)cc2)nc1 [pioglitazone] (first compound 0.08 µM, partner dose 2 µM) | 149 | 56.1 | 64.7 | 93 | 80.9 | 77.1 | 29.4 | 68.9 | 39.3 | 116 | 120 | 137 | 136 | 79.8 | 46.1
8 | Nc1cccc2c1CN(C1CCC(=O)NC1=O)C2=O (stereo not given) [lenalidomide] + O=C(O)C(=O)Nc1sc2c(c1C(=O)O)CCNC2 [TCS401] (first compound 1 µM, partner dose 1.66667 µM) | 57.3 | 130 | 249 | 82.5 | 70.2 | 50 | 112 | 115 | 67.2 | 94.5 | 76.4 | 106 | 64 | 86.4 | 75.3
9 | CC(C)(C)c1cnc(CSc2cnc(NC(=O)C3CCNCC3)s2)o1 + COc1ccc2c(c1)CCC1C2CCC2(C)C(NCCCCCCN3C(=O)C=CC3=O)CCC12 [U73122] (first compound 0.01 µM, partner dose 0.4 µM) | 88.4 | 49.5 | 95.4 | 48.7 | 110 | 24.9 | 74.1 | 57.2 | 66.8 | 40.4 | 148 | 113 | 69.5 | 79 | 105
10 | O=C(Nc1cccc(Cl)c1)Nc1ncc(CCNc2ncnc3ccsc23)s1 + COc1cc2ncnc(Nc3ccc(Oc4ccccc4)cc3)c2cc1OC [SrcI1] (first compound 0.0008 µM, partner dose 2 µM) | 131 | 28.1 | 115 | 50.2 | 82.7 | 65.3 | 79.6 | 45.1 | 117 | 32.7 | 77.6 | 124 | 126 | 59.7 | 58.3
11 | Cc1cc(N2CCOCC2)cc2[nH]c(-c3c(NC[C@@H](O)c4cccc(Cl)c4)cc[nH]c3=O)nc12 + N#Cc1c(O)c2c(-c3ccc(-c4ccccc4O)cc3)csc2[nH]c1=O [A769662] (first compound 0.2 µM, partner dose 2 µM) | 111 | 159 | 93.7 | 58.9 | 153 | 23.4 | 205 | 89.5 | 224 | 170 | 129 | 115 | 130 | 68 | 114
12 | C=CCn1c(=O)c2cnc(Nc3ccc(N4CCN(C)CC4)cc3)nc2n1-c1cccc(C(C)(C)O)n1 + c1cc(-c2cnn3cc(-c4ccc(OCCN5CCCCC5)cc4)cnc23)ccn1 [Dorsomorphin] (first compound 0.02 µM, partner dose 0.4 µM) | 143 | 57.6 | 93.3 | 69.4 | 136 | 46.6 | 65 | 196 | 43.3 | 104 | 104 | 169 | 85.1 | 99 | 99.1

Quoted from the listing:
Value for Nc1cccc2c1CN(C1CCC(=O)NC1=O)C2=O (stereo not given) [lenalidomide] + O=S(=O)(c1ccccc1)N(CC(F)(F)F)c1ccc(C(O)(C(F)(F)F)C(F)(F)F)cc1 [T0901317] (first compound 1 µM, partner dose 1.4 µM) under cleaved PARP positive nuclei fraction (WM1716) [%]: 148
Value for O=C(Nc1cccc(Cl)c1)Nc1ncc(CCNc2ncnc3ccsc23)s1 + COc1cc2ncnc(Nc3ccc(Oc4ccccc4)cc3)c2cc1OC [SrcI1] (first compound 0.0008 µM, partner dose 2 µM) under cleaved PARP positive nuclei fraction (SkMel5) [%]: 79.6
